Source: ChEMBL document CHEMBL4196147, “Staurosporine Derivatives Generated by Pathway Engineering in a Heterologous Host and Their Cytotoxic Selectivity” (J Nat Prod, 2018)

Assay: Cytotoxicity against human Huh7.5 cells assessed as decrease in cell viability after 48 hrs by MTT assay
Type: functional, cell-based
Details: Huh7.5, 48 h

With `CN[C@@H]1C[C@H]2O[C@@](C)([C@@H]1OC)n1c3ccccc3c3c4c(c5c6ccccc6n2c5c31)C(=O)NC4` [STAUROSPORINE] as the compound, how does the IC50 read?
The IC50 was 600 nM.
